According to patent US20030018166A1 (priority 2000, published 2003):
For at least one compound, name, drawing or mass did not settle the structure.

Tested on: wild type M. smegmatis mc^2155
Type: cell-based
Details: grown on acetate; discs 30 mM and 60 mM

## O=C(O)C(=O)CBr [bromopyruvate, 3-bromopyruvate]
  effect on growth, inhibition zone around disc: inhibitory
